For at least one compound, name, drawing or mass did not settle the structure.
Experiments:
skin grooves = assay: Planarization action on skin surface formation (skin groove), silicon resin replicas and image analysis; assay type: in vivo, hairless mice; details: 0.01% in ethanol
Experimental: Changes which appear on skin grooves after applications of RA and Am80 (each at a concentration of 0.01% in ethanol) were studied by using hairless mice (Skh-h4l, 16 weeks old, female, 5 mice per group). The applications were conducted once a day, 5 days a week, and for 30 days. As a control, only ethanol was applied. On the next day of the day of last application, replicas of skin surfaces were created by using a silicon resin, and various parameters that represent features of the shape of the skin surface were determined by using an apparatus for image analysis. […] Further, the decrease in KSD correlated to epidermal thickening.

horny layer = assay: Horny layer turnover test (dansylchloride fluorescence); assay type: in vivo, guinea pig; details: 50 ppm, 10 μl/1 cm diameter, once a day (FIG. 3)
Experimental: Actions on turnover of horny layer were evaluated by using guinea pigs. Hartley albino male guinea pigs of approximately 750 g in weight, whose hair was removed using depilatory wax three days prior to the experiment, were applied occlusively with 5% Vaseline ointment of dansylchloride for 24 hours using a patch test Finn Chamber, and then the skin of the guinea pigs were wiped to remove the ointment. A portable fluorometer was used for irradiation with ultraviolet rays having maximum at around 338 nm, and the fluorescent intensity of the dansylchloride was measured. Simultaneously, fluorescent intensity of an area where dansylchloride was not applied (blank value) was measured in the same manner. After the measurement of the fluorescent intensities, 10 μl/1 cm diameter of RA and Am80 at 50 ppm concentration were applied once a day. During the measurement, skin irritancy was also determined according to the criteria indicated in Example 1. […] Cumulative skin irritancy was simultaneously evaluated according to the criteria in Example 1, and the results were obtained as shown in FIG. 4.

CC1=C(/C=C/C(C)=C/C=C/C(C)=C/C(=O)O)C(C)(C)CCC1 [RA, retinoic acid, reference compound]
epidermal thickening (skin grooves; for 30 days (FIG. 6)): obvious changes
planarization changes of skin surface on replicas (skin grooves; once a day, 5 days a week, for 30 days): planarization changes of the surfaces were observed
action on horny cell layer turnover (horny layer): strong accelerating action

From patent US8030360B2, “Anti-wrinkle agent” (Kemphys Ltd., priority 2004, dated 2011)
